Test [1] addresses JNK (c-Jun N-terminal kinase, MAPK). In words: co-IP; immunoprecipitation and immunoblot from 293 T cells, unstimulated and treated with TNFα for the indicated times after serum starvation.
Test [2] concerns the target JNK, bacterially expressed. Nature of the test: pull-down; in vitro binding assay with bacterially expressed purified proteins; prey and bait incubated 2 h, glutathione sepharose 2 h, washed five times with PBS, immunoblot; both purified.

Results are given in words; binding and its absence hold for the method and conditions named. A result given as binding can be weak or reduced; the word gives no strength. For some assays here: Binding seen in cells or lysates may run through a third protein.

B1: PTPN1 (non-transmembrane protein tyrosine phosphatase 1) (enzyme, UniProt P18031 1-435)
chain: MEMEKEFEQIDKSGSWAAIYQDIRHEASDFPCRVAKLPKNKNRNRYRDVSPFDHSRIKLHQEDNDYINASLIKMEEAQRSYILTQGPLPNTCGHFWEMVWEQKSRGVVMLNRVMEKGSLKCAQYWPQKEEKEMIFEDTNLKLTLISEDIKSYYTVRQLELENLTTQETREILHFHYTTWPDFGVPESPASFLNFLFKVRESGSLSPEHGPVVVHCSAGIGRSGTFCLADTCLLLMDKRKDPSSVDIKKVLLEMRKFRMGLIQTADQLRFSYLAVIEGAKFIMGDSSVQDQWKELSHEDLEPPPEHIPPPPRPPKRILEPHNGKCREFFPNHQWVKEETQEDKDCPIKEEKGSPLNAAPYGIESMSQDTEVRSRVVGGSLRGAQAASPAKGEPSLPEKDEDHALSYWKPFLVNMCVATVLTAGAYLCYRFLFNSNT
In the case of B1, in test [1], the binding result is reported as “binds”.

B2: PTPN1, bacterially expressed (enzyme, UniProt P18031 1-435)
chain: MEMEKEFEQIDKSGSWAAIYQDIRHEASDFPCRVAKLPKNKNRNRYRDVSPFDHSRIKLHQEDNDYINASLIKMEEAQRSYILTQGPLPNTCGHFWEMVWEQKSRGVVMLNRVMEKGSLKCAQYWPQKEEKEMIFEDTNLKLTLISEDIKSYYTVRQLELENLTTQETREILHFHYTTWPDFGVPESPASFLNFLFKVRESGSLSPEHGPVVVHCSAGIGRSGTFCLADTCLLLMDKRKDPSSVDIKKVLLEMRKFRMGLIQTADQLRFSYLAVIEGAKFIMGDSSVQDQWKELSHEDLEPPPEHIPPPPRPPKRILEPHNGKCREFFPNHQWVKEETQEDKDCPIKEEKGSPLNAAPYGIESMSQDTEVRSRVVGGSLRGAQAASPAKGEPSLPEKDEDHALSYWKPFLVNMCVATVLTAGAYLCYRFLFNSNT
On to B2, for which, in test [2], the binding entry is recorded as “binds”.

These data come from paper PMC5636874.
